Structures are written as SMILES.

A short description of the data set: Perfume deposition on hair swatches, pentane extraction and GC-MS. As to conditions: wet stage, Example 2, silicone-solubilised fragrance (Sample 4 vs Sample 3).
Turning to `CC1COCc2cc3c(cc21)C(C)(C)C(C)C3(C)C` (stereo not drawn) [Galaxolide™], the “Deposition of particular fragrance component increased by a factor” value worked out at 45.

On to `C=CC(C)(O)CCC=C(C)C` (stereo not drawn) [Linalool], for which the “Deposition of particular fragrance component increased by a factor” value is 45.

On to `CO[C@]1(C)CC[C@@]23C[C@@H]1C(C)(C)[C@@H]2CC[C@H]3C` [cedryl methyl ether], for which the “Deposition of particular fragrance component increased by a factor” value was 11.

Source of the values: patent US20080004192A1, “Composition” (Givaudan SA, priority 2004, published 2008).
